{"source": "patent US20140086839A1", "about": "“QUINOLONE ANALOGS FOR TREATING AUTOIMMUNE DISEASES” (Tel HaShomer Medical Research Infrastructure and Services …, priority 2011, published 2014)", "test_system": "MOG-induced EAE", "assay": "MOG-induced EAE, CX-5461 prophylactic treatment initiated at induction phase", "assay_type": "in vivo", "details": "50 mg/kg/day oral from day of EAE induction", "protocol": "EAE was induced in female C57BL/6 mice, 8 weeks of age, by subcutaneous immunization to the flank of emulsion (1:1 ratio volume/volume) containing […] peptide dissolved in phosphate-buffered saline (PBS) (at a concentration 2 mg/ml) and 0.5 mg Mycobacterium Tuberculosis H37Ra (Difco, Detroit, Mich.) in […] incomplete Freund's adjuvant (Sigma, St. Louis, Mo.). Pertussis toxin 200 ng/mouse (dissolved in […] PBS (List Biological Laboratories, Campbell, Calif.) was injected intra-peritoneal on the day of immunization and again two days later. Mice were monitored daily for clinical signs of EAE, scored as follows: 1-flaccid tail; 1.5—hind limb weakness; 2—paralyzed hind limbs and poor righting ability; 2.5—forelimb weakness, paralyzed hind limbs, paralyzed tail; 3—four limbs paralysis, inability to right; 4—quadriplegia; 5.0—moribund or death of the animal after preceding clinical disease. Animal reaching a score of 4 were scarified using CO2. Mice were kept in an SPF (Specific Pathogen Free) environment. […]\nEAE was induced in female C57Bl/6J female mice (8 weeks old) as described above. […] Mice were monitored daily for clinical signs of EAE up to 42 days post induction.", "note": "For at least one compound, name, drawing or mass did not settle the structure.", "data": [{"smiles": "Cc1cnc(CNC(=O)c2c(=O)c3ccc(N4CCCN(C)CC4)nc3n3c2sc2ccccc23)cn1", "note": "[CX-5461, 2-(4-methyl-1,4-diazepan-1-yl)-N-((5-methylpyrazin-2-yl)methyl)-5-oxo-5H-benzo[4,5]thiazolo[3,2-a][1,8]naphthyridine-6-carboxamide]", "values": [{"measurement": "development of EAE", "value": "did not develop EAE"}]}]}
